Results as given in PubChem BioAssay AID493014 (National Center for Advancing Translational Sciences (NCATS), 2011).
The campaign covered roughly 340,000 compounds. About 170 (0.05%) were called active. The inconclusive results got no clear call from the source; some entries with a clear call stand among them for comparison. Calls come from the whole dose curve; as a rule, active = well fitted inhibition curve with a large enough effect in the signal ratio, with a control signal flat (not every such curve was filed as active); inconclusive = small, poorly fitted or top-dose-only effect, or effect the other way, or a change in a side signal; inactive = flat fitted curve, though single readings scatter; the % refers to the signal ratio. Where the call is inconclusive, the potency comes from a doubtful curve fit.

Experiment: qHTS Assay to Find Inhibitors of Chronic Active B-Cell Receptor Signaling;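 for activity change, negative = inhibition: plate controls were basal doxycycline-induced cells for no effect and cells given 10 µM MG132 for full effect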
Details: ABC-DLBCL IkBa-CBG/CBR reporter, luminescence ratio (green luciferase fused to IkBa over red control in TMD8 lymphoma cells), 4 h; activity change, negative = inhibition: at 46.1 µM (top of the series)
Method in brief: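 Compounds up to 46 uM were incubated four hours with TMD8 cells whose green CBG68 luciferase is fused to IkappaBalpha; red CBR luminescence normalised the signal, and concentration-effect curves were fitted to fusion, red and ratio data.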
Potency is the fitted concentration of half-maximal effect.

SMILES	activity change, negative = inhibition	Potency
COc1ccccc1CNC(=O)CN(C)CC(=O)Nc1cccc(F)c1	inconclusive: 0.66%	–
CCOC(=O)CNC(=O)C1c2ccccc2C(=O)N(c2ccc(OC)cc2)C1c1ccc(OC)cc1 (stereo unspecified)	–	inconclusive: 1.64 µM [rising, full curve, poor fit]
CSc1cccc(NC(=S)N2CCC(N(C)C3CCCCC3C)CC2)c1 (stereo unspecified)	–	inconclusive: 2.51 µM [falling, partial curve, poor fit]
O=C(CSc1ccc(-c2ccccc2)nn1)c1cccs1	–	inconclusive: 31.6 µM [falling, single point]
Clc1ccc(-c2csc(N/N=C/c3ccco3)n2)cc1	inconclusive: 6.37%	–
CC(=O)Nc1ccc(S(=O)(=O)Nn2cnnc2)cc1	inactive: -1.86%	–
COC(=O)CCn1nnc(-c2ccc(C)cc2)n1	inconclusive: 9.76%	–
COc1ccc2c(c1)Cc1sc(NC(=O)c3cccs3)nc1-2	inconclusive: -3.63%	–
Clc1ccc(Sc2cc(Cl)c(-c3ccccc3)nn2)cc1	–	inconclusive: 6.31 µM [falling, single point]
Cc1cc(Br)cc(C)c1NC(=S)NC(=O)CC(C)C	inconclusive: 14.3%	–
CCCC(=O)C1C(=O)CC(CC(C)SCC)CC1=O (stereo unspecified)	inconclusive: 5.66%	–
CCOC(=O)c1sc(=NC(=O)c2ccc(S(=O)(=O)N(C)c3ccccc3)cc2)n(C)c1C	inconclusive: 11.3%	–
COc1ccc(OC)c2sc(N3CCN(C(=O)C(C)(C)C)CC3)nc12	inconclusive: 25.7%	–
C=C(C)C(=O)Nc1cccc(C2=NOC3(C2)C[C@@H](C(N)=O)N(C(=O)CCCCC)C3)c1 (stereo partly specified)	inconclusive: -1.13%	–
CCOC(=O)C1CCC(CN(Cc2cccc(Br)c2)S(=O)(=O)c2ccc(C)cc2)CC1 (stereo unspecified)	inactive: 9.75%	–
Cn1c(=O)[nH]c(=O)c2c1nc(N1CCCCC1)n2C/C=N/Nc1ccc(C(=O)O)cc1	–	inconclusive: 3.98 µM [rising, partial curve, poor fit]
COc1ccc(C(=O)C/C(=C\C(=O)c2ccc(C)cc2)c2ccccc2)cc1	–	inconclusive: 11.2 µM [rising, partial curve, poor fit]
CCO[C@@H]1OC(C(=O)NCc2nc3ccccc3[nH]2)=C[C@H](C2CC2)[C@H]1CCCO	–	inconclusive: 10 µM [falling, partial curve]
COc1ccc(CCNC(=O)C(=O)N/N=C/c2cccs2)cc1OC	inactive: 1.4%	–
Cc1ccc(N2CC(C(=O)NCCCn3ccnc3)CC2=O)cc1 (stereo unspecified)	–	inconclusive: 1.16 µM [rising, full curve, poor fit]
COc1ccccc1OCCSc1nc(C)c(Cc2ccccc2)c(=O)[nH]1	inconclusive: 16.7%	–

5 of the compounds above, as a markdown table.

| SMILES | activity change, negative = inhibition | Potency |
| --- | --- | --- |
| CCCC(=O)C1C(=O)CC(CC(C)SCC)CC1=O (stereo unspecified) | inconclusive: 5.66% | – |
| CCOC(=O)c1sc(=NC(=O)c2ccc(S(=O)(=O)N(C)c3ccccc3)cc2)n(C)c1C | inconclusive: 11.3% | – |
| COc1ccc(OC)c2sc(N3CCN(C(=O)C(C)(C)C)CC3)nc12 | inconclusive: 25.7% | – |
| C=C(C)C(=O)Nc1cccc(C2=NOC3(C2)C[C@@H](C(N)=O)N(C(=O)CCCCC)C3)c1 (stereo partly specified) | inconclusive: -1.13% | – |
| CCOC(=O)C1CCC(CN(Cc2cccc(Br)c2)S(=O)(=O)c2ccc(C)cc2)CC1 (stereo unspecified) | inactive: 9.75% | – |
